Source: the supplement of paper PMC6411743
± gives the standard deviation of the averaged measurements. This is one part of the list.

Protein sequences, listed by entry. Tags and fused reporters are not part of them. Lines headed by an entry give the natural chain unless they say otherwise; changes in a name come on top.
UniProt Q99627: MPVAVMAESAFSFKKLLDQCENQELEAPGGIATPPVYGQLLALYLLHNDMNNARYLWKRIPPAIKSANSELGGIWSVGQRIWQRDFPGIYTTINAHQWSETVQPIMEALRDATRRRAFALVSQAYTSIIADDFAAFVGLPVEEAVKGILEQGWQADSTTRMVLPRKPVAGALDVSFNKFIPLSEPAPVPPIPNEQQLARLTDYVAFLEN
UniProt Q04323: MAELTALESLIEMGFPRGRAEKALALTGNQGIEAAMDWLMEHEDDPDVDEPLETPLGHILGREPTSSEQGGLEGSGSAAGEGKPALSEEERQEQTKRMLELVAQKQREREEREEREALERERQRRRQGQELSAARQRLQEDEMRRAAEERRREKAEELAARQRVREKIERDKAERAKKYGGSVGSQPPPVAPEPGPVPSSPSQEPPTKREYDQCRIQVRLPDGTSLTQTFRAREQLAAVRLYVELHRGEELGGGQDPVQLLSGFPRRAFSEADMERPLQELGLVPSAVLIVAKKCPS
UniProt Q676U5: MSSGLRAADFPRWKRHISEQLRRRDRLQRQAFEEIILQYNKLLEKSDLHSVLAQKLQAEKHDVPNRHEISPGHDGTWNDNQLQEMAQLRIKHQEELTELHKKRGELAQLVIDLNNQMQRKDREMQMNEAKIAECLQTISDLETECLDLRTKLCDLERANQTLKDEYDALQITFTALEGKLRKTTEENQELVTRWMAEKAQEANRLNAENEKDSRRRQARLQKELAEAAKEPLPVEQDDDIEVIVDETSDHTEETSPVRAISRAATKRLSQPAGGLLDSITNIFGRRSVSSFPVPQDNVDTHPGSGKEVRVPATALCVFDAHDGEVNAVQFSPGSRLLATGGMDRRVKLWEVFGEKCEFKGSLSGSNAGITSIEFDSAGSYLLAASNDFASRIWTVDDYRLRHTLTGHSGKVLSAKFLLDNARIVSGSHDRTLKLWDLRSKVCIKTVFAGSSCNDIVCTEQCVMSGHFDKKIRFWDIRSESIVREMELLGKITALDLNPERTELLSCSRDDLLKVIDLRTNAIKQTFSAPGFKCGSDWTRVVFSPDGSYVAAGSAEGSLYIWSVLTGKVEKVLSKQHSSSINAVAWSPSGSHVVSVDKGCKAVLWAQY
UniProt P09496: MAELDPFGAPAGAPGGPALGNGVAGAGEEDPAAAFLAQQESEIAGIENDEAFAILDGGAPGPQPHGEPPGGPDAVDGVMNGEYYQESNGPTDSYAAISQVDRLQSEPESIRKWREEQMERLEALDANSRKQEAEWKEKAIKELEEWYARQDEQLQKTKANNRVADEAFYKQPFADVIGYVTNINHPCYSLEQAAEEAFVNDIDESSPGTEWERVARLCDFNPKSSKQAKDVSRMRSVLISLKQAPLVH
UniProt P53667: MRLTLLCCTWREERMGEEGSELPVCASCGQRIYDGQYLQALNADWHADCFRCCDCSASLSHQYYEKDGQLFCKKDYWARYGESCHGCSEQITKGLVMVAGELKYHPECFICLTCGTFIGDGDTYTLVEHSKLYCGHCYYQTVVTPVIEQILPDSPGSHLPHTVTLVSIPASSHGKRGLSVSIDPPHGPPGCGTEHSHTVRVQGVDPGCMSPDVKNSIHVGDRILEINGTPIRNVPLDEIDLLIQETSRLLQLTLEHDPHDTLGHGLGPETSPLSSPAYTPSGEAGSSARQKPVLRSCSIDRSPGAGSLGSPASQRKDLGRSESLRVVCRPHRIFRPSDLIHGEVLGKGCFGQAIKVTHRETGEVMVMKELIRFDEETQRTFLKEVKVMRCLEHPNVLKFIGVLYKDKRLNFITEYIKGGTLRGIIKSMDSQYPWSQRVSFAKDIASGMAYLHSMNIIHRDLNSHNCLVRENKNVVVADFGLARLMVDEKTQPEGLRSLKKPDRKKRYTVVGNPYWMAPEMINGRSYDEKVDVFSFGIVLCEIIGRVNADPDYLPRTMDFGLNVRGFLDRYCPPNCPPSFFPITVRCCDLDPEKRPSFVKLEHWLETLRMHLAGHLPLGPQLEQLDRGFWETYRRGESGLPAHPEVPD
UniProt Q9Y2Q3: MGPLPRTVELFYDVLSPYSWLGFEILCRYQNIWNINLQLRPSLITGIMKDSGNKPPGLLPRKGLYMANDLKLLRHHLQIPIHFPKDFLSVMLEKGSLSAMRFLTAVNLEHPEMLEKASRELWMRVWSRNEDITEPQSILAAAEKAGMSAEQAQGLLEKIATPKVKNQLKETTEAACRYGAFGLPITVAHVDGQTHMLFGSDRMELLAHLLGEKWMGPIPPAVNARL
UniProt P98171: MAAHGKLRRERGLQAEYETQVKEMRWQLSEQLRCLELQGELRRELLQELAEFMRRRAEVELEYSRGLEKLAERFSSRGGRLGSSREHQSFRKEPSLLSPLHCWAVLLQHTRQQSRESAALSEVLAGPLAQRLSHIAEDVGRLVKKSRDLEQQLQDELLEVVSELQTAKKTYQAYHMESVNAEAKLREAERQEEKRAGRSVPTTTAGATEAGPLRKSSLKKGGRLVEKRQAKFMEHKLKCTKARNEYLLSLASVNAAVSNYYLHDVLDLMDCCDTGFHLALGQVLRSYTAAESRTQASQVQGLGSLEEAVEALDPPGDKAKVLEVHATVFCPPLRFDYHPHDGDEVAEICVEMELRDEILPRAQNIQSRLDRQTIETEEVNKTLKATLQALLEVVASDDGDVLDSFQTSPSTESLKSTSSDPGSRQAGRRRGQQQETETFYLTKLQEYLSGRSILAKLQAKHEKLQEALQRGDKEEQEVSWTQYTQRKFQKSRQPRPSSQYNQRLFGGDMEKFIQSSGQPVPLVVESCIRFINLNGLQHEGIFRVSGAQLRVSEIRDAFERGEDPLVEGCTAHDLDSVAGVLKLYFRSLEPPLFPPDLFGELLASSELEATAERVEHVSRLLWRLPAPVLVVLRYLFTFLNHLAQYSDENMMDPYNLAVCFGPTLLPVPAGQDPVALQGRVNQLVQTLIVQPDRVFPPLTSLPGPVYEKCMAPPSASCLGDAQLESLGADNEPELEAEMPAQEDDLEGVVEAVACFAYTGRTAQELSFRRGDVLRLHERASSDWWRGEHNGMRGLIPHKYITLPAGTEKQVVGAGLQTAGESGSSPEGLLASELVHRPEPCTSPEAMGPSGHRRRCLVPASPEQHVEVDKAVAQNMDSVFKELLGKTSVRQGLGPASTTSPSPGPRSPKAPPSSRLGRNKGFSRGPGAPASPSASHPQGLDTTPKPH
UniProt Q9BTT0: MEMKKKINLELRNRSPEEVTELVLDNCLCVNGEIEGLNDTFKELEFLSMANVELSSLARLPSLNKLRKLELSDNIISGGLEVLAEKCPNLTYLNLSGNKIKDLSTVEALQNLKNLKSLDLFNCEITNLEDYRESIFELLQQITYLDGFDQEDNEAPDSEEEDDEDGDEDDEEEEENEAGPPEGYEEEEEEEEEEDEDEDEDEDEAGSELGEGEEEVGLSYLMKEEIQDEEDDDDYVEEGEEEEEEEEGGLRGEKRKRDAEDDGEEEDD
UniProt Q14493, whole entry, looked up: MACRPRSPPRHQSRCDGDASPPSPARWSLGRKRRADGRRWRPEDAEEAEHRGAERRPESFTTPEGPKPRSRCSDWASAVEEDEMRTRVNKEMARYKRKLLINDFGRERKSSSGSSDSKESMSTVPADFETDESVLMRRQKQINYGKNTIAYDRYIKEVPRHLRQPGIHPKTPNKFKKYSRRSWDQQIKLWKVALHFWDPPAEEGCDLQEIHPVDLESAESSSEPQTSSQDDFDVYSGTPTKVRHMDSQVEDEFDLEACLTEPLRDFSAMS
UniProt Q69YH5: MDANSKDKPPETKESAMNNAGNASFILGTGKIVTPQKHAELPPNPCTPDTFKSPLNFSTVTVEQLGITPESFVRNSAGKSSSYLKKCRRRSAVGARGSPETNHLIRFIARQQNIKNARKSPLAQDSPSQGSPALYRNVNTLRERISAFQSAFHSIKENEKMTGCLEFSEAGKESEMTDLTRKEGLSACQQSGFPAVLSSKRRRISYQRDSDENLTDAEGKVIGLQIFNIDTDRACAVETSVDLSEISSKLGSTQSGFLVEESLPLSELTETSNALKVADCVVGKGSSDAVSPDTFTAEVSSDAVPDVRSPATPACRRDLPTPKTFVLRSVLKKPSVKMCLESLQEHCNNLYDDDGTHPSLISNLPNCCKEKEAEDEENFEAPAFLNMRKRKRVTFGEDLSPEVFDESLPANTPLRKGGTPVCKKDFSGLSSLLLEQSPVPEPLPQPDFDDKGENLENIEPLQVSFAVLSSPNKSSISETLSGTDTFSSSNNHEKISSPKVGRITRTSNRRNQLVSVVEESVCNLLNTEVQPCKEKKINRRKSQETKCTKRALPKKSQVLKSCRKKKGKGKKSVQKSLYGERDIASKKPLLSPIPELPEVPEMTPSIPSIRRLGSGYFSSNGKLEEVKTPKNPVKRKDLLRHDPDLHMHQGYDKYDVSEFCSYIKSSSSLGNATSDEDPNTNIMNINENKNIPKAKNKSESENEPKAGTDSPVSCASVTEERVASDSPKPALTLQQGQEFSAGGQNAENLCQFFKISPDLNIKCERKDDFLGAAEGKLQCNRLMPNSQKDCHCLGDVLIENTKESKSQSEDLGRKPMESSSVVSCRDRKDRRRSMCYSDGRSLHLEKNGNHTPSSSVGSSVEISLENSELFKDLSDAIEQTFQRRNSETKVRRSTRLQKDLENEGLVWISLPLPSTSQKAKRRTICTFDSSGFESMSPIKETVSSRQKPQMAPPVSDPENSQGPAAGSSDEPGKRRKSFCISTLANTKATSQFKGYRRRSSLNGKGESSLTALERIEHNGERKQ
UniProt Q5VW38: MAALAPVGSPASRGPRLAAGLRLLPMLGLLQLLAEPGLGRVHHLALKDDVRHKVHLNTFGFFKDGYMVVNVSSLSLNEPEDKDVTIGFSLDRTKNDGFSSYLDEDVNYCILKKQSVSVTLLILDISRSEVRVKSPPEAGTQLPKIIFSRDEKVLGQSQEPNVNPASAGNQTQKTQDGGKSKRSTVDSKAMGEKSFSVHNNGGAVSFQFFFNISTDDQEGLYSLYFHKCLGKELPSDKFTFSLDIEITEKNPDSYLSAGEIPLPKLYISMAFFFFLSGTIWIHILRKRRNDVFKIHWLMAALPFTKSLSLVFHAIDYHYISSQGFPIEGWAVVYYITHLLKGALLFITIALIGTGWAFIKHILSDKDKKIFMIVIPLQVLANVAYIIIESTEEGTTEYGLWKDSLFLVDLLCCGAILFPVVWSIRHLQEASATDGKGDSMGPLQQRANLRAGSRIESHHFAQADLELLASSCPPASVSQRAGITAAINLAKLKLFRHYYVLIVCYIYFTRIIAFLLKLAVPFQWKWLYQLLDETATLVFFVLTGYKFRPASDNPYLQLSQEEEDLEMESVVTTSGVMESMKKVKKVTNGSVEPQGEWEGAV
UniProt Q9Y4P3: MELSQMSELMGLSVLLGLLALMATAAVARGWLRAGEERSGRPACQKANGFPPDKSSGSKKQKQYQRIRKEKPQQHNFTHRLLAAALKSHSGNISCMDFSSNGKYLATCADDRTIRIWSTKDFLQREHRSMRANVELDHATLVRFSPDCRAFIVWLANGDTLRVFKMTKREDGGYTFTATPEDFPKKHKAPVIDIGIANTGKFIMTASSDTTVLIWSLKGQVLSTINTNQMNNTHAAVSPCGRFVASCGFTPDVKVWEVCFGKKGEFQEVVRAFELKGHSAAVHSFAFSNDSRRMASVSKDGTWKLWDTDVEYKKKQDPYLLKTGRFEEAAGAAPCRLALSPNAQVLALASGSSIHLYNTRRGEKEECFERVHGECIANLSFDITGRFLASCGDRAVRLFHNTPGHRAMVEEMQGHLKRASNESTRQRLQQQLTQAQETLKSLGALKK
UniProt Q9NZD2: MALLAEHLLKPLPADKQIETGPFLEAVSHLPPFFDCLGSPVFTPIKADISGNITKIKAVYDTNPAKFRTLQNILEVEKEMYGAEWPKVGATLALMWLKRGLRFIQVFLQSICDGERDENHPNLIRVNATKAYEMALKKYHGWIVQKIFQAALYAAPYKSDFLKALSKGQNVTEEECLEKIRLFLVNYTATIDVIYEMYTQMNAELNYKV

Compound: Nc1nc2c(ncn2[C@@H]2O[C@H](COP(=O)(O)OP(=O)(O)OP(=O)(O)O)[C@@H](O)[C@H]2O)c(=O)[nH]1 [guanosine triphosphate]
Assay: NP40-soluble protein abundance relative to vehicle (solubility fold change) (ratio); higher = more soluble protein in presence of GTP
Procedure, shortened: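 Each value is a fold change relative to the detergent-processed vehicle, calculated per replicate from vsn-normalised intensities. Jurkat crude lysate received eight concentrations (0.1 to 10 mM) for 10 min at room temperature and 3 min at 37 °C, then was solubilised in 0.8% NP40 with benzonase (60 min, 4 °C). The ultracentrifuged supernatant was TMT-labelled and run by LC-MS/MS in three independent experiments.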

Row | Target | NP40-soluble protein abundance (concentration: 0.1mM) | NP40-soluble protein abundance (concentration: 0.5mM) | NP40-soluble protein abundance (concentration: 1mM) | NP40-soluble protein abundance (concentration: 2mM) | NP40-soluble protein abundance (concentration: 4mM) | NP40-soluble protein abundance (concentration: 6mM) | NP40-soluble protein abundance (concentration: 8mM) | NP40-soluble protein abundance (concentration: 10mM)
1 | E7ETB3 and related entries (UniProt Q9ULA0) | 1.04 ± 0.052 | 1.08 ± 0.071 | 0.998 ± 0.097 | 1.08 ± 0.15 | 1.05 ± 0.14 | 1.06 ± 0.15 | 1.03 ± 0.12 | 1.02 ± 0.11
2 | E7EX17 and related entries (UniProt P23588) | 0.941 ± 0.1 | 0.941 ± 0.12 | 0.994 ± 0.11 | 0.936 ± 0.15 | 0.958 ± 0.13 | 1 ± 0.12 | 1.08 ± 0.092 | 1.06 ± 0.12
3 | G3V5T9 and related entries (UniProt P24941) | 0.984 ± 0.03 | 0.987 ± 0.055 | 0.946 ± 0.01 | 0.941 ± 0.021 | 0.922 ± 0.029 | 0.939 ± 0.037 | 0.884 ± 0.049 | 0.884 ± 0.073
4 | F6T1Q0 and related entries (UniProt Q6L8Q7) | 1.01 ± 0.02 | 0.965 ± 0.048 | 0.902 ± 0.022 | 0.902 ± 0.064 | 0.892 ± 0.046 | 0.885 ± 0.057 | 0.848 ± 0.046 | 0.828 ± 0.081
5 | E9PGT6 and related entries (UniProt Q99627) | 0.959 ± 0.041 | 0.975 ± 0.055 | 1.01 ± 0.068 | 1.01 ± 0.059 | 1.02 ± 0.072 | 1.01 ± 0.022 | 0.967 ± 0.018 | 0.984 ± 0.037
6 | F5H527 and related entries (UniProt Q76I76) | 1.01 ± 0.015 | 1.05 ± 0.035 | 1.1 ± 0.04 | 1.03 ± 0.033 | 1.01 ± 0.061 | 1.03 ± 0.05 | 1.07 ± 0.035 | 1.03 ± 0.03
7 | F8VQQ3 and related entries (UniProt Q9HB07) | 1.02 ± 0.018 | 0.994 ± 0.028 | 0.938 ± 0.04 | 0.915 ± 0.042 | 0.91 ± 0.059 | 0.905 ± 0.05 | 0.882 ± 0.05 | 0.866 ± 0.078
8 | G5E933 and related entries (UniProt O95248) | 1.05 ± 0.016 | 1.05 ± 0.032 | 0.997 ± 0.022 | 1.08 ± 0.049 | 1.08 ± 0.034 | 1.08 ± 0.063 | 1.03 ± 0.027 | 1 ± 0.056
9 | E9PJ81 and related entries (UniProt Q04323) | 0.939 ± 0.021 | 0.906 ± 0.055 | 0.972 ± 0.014 | 0.953 ± 0.043 | 0.927 ± 0.04 | 0.924 ± 0.04 | 0.894 ± 0.073 | 0.985 ± 0.074
10 | E7EVC7 and related entries (UniProt Q676U5) | 1.05 ± 0.07 | 1.08 ± 0.087 | 1.01 ± 0.096 | 1.03 ± 0.038 | 1.02 ± 0.049 | 1.02 ± 0.059 | 0.99 ± 0.1 | 1.02 ± 0.081
11 | E7EVJ5 and related entries (UniProt Q96F07) | 1.12 ± 0.069 | 1.16 ± 0.11 | 0.938 ± 0.031 | 1.04 ± 0.15 | 0.97 ± 0.094 | 0.964 ± 0.059 | 0.864 ± 0.058 | 0.845 ± 0.1
12 | F8WF69 and related entries (UniProt P09496) | 1.03 ± 0.039 | 1.09 ± 0.086 | 1.06 ± 0.047 | 1.03 ± 0.12 | 0.99 ± 0.13 | 1.03 ± 0.1 | 1.12 ± 0.086 | 1.1 ± 0.067
13 | E9PC47 and related entries (UniProt P53667) | 0.901 ± 0.095 | 1.11 ± 0.15 | 1.1 ± 0.21 | 0.923 ± 0.03 | 1.06 ± 0.15 | 1.04 ± 0.11 | 1.01 ± 0.093 | 0.929 ± 0.055
14 | F6TDL0 and related entries (UniProt Q92569) | 1.1 ± 0.17 | 1.11 ± 0.25 | 1.1 ± 0.22 | 0.975 ± 0.16 | 0.937 ± 0.19 | 0.983 ± 0.2 | 0.984 ± 0.14 | 0.971 ± 0.081
15 | E7EX90 and related entries (UniProt Q14203) | 0.997 ± 0.02 | 1.06 ± 0.033 | 1.09 ± 0.07 | 1.11 ± 0.1 | 1.13 ± 0.12 | 1.14 ± 0.16 | 1.15 ± 0.17 | 1.14 ± 0.19
16 | E9PFN5 and related entries (UniProt Q9Y2Q3) | 0.922 ± 0.042 | 0.934 ± 0.038 | 0.895 ± 0.036 | 0.906 ± 0.043 | 0.887 ± 0.042 | 0.888 ± 0.031 | 0.829 ± 0.082 | 0.86 ± 0.079
17 | E7EQN5 and related entries (UniProt P98171) | 1.03 ± 0.016 | 1.05 ± 0.025 | 0.9909 ± 0.0031 | 1.02 ± 0.033 | 0.985 ± 0.018 | 0.9975 ± 0.0053 | 0.9806 ± 0.0087 | 0.968 ± 0.033
18 | E9PPH5 and related entries (UniProt Q9BTT0) | 0.838 ± 0.058 | 0.874 ± 0.062 | 0.978 ± 0.05 | 0.94 ± 0.045 | 0.937 ± 0.056 | 0.946 ± 0.037 | 0.958 ± 0.038 | 1.08 ± 0.079
19 | E9PMG4 and related entries (UniProt Q9BUR4) | 1.19 ± 0.15 | 1.27 ± 0.15 | 1.19 ± 0.08 | 1.17 ± 0.14 | 1.14 ± 0.074 | 1.22 ± 0.097 | 1.2 ± 0.049 | 1.32 ± 0.064
20 | F8W8D3 and related entries (UniProt Q14493) | 0.949 ± 0.05 | 0.911 ± 0.012 | 1.01 ± 0.02 | 0.968 ± 0.051 | 0.935 ± 0.053 | 0.989 ± 0.08 | 0.982 ± 0.038 | 1.02 ± 0.054
21 | E7EXA6 and related entries (UniProt Q8WVB6) | 1.11 ± 0.045 | 1.23 ± 0.11 | 1.22 ± 0.12 | 1.31 ± 0.18 | 1.32 ± 0.2 | 1.32 ± 0.19 | 1.31 ± 0.19 | 1.29 ± 0.17
22 | E9PEI0 and related entries (UniProt Q69YH5) | 1.02 ± 0.056 | 0.98 ± 0.039 | 0.929 ± 0.049 | 0.998 ± 0.065 | 0.972 ± 0.04 | 0.944 ± 0.048 | 0.986 ± 0.061 | 0.984 ± 0.043
23 | E9PDP5 and related entries (UniProt Q8IWZ3) | 0.994 ± 0.056 | 0.987 ± 0.076 | 1.01 ± 0.082 | 0.971 ± 0.086 | 0.957 ± 0.066 | 0.942 ± 0.047 | 0.978 ± 0.045 | 0.965 ± 0.06
24 | G5E994 and related entries (UniProt Q5VW38) | 1.03 ± 0.02 | 1.03 ± 0.051 | 1.05 ± 0.044 | 0.991 ± 0.037 | 0.972 ± 0.051 | 0.956 ± 0.052 | 0.961 ± 0.038 | 1 ± 0.015
25 | E9PF19 and related entries (UniProt Q9Y4P3) | 1.11 ± 0.067 | 1.1 ± 0.066 | 1.14 ± 0.045 | 1.2 ± 0.046 | 1.3 ± 0.078 | 1.31 ± 0.042 | 1.32 ± 0.027 | 1.33 ± 0.067
26 | F5H0U5 and related entries (UniProt Q9NZD2) | 0.786 ± 0.12 | 0.74 ± 0.092 | 0.92 ± 0.13 | 0.929 ± 0.095 | 0.921 ± 0.082 | 0.888 ± 0.056 | 0.75 ± 0.16 | 0.939 ± 0.14

2 successive records already listed, quoted:
Row | Target | NP40-soluble protein abundance (concentration: 0.1mM) | NP40-soluble protein abundance (concentration: 0.5mM) | NP40-soluble protein abundance (concentration: 1mM) | NP40-soluble protein abundance (concentration: 2mM) | NP40-soluble protein abundance (concentration: 4mM) | NP40-soluble protein abundance (concentration: 6mM) | NP40-soluble protein abundance (concentration: 8mM) | NP40-soluble protein abundance (concentration: 10mM)
19 | E9PMG4 and related entries (UniProt Q9BUR4) | 1.19 ± 0.15 | 1.27 ± 0.15 | 1.19 ± 0.08 | 1.17 ± 0.14 | 1.14 ± 0.074 | 1.22 ± 0.097 | 1.2 ± 0.049 | 1.32 ± 0.064
20 | F8W8D3 and related entries (UniProt Q14493) | 0.949 ± 0.05 | 0.911 ± 0.012 | 1.01 ± 0.02 | 0.968 ± 0.051 | 0.935 ± 0.053 | 0.989 ± 0.08 | 0.982 ± 0.038 | 1.02 ± 0.054
